# Test results published in patent publication US7183279B2 (University of Ottawa, priority 2006, dated 2007).
# For part of these data: Strings that start with PEPTIDE1 are HELM notation: dots part the residues, brackets hold end groups and non-standard residues.
# Experiments:
# [1] = general procedure: Boc solid-phase peptide synthesis; oxime resin; DCC, DMAP, N-hydroxybenzotriazole; settings: whole synthesis
# [2] = general procedure: Boc solid-phase peptide synthesis; oxime-resin (Novabiochem), 0.57 meq/g; DCC, DMAP, N-hydroxybenzotriazole; settings: whole synthesis; for isolated yield: scale of the general procedure 1.5 g resin
# [3] = peptide synthesis; settings: whole synthesis
substance,measurement,setting,value
"PEPTIDE1{G.[Phe4Cl].Y.[dR]}$PEPTIDE1,PEPTIDE1,1:R1-4:R2$$$V2.0",isolated mass,[1],50 mg
same,isolated yield,"[1]; based on starting resin, scale of the general procedure 1.5 g resin",11%
"PEPTIDE1{T.[Phe4Cl].Y.[dR]}$PEPTIDE1,PEPTIDE1,1:R1-4:R2$$$V2.0",isolated mass,[2],40 mg
same,isolated yield,[2],9%
cyclo(-Gly-(p-amino)Phe-Tyr-D-Arg-),isolated yield,[3],9%
cyclo(-Gly-(p-chloro)Phe-Tyr-(p-amino)Phe-),isolated mass,[2],45 mg
same,isolated yield,[2],9%
cyclo(-Gly-(p-chloro)Phe-Tyr-(p-guanidino)Phe-),isolated mass,[2],15 mg
same,isolated yield,[2],2%
